According to ChEMBL document CHEMBL3526118, “Combination of GSH trapping and time-dependent inhibition assays as a predictive method of drugs generating highly reactive metabolites” (Drug Metab Dispos, 2011):

Assay: Intrinsic clearance for reactive metabolites formation assessed as summation of [3H]GSH adduct formation rate-based reactive metabolites formation and cytochrome P450 (unknown origin) inactivation rate-based reactive metabolites formation
Settings: human

SMILES: COc1cc2c(cc1OC)C(=O)C(CC1CCN(Cc3ccccc3)CC1)C2 (stereo unspecified) [DONEPEZIL]
- clearance: 0.001 µL/min/mg
